# Measurements: the supplement of paper PMC5836539
# Chains of the proteins cited; added tags and fusions are not shown. Lines headed by an entry give the natural chain unless they say otherwise; changes in a name come on top.
# UniProt P00441, whole entry, looked up: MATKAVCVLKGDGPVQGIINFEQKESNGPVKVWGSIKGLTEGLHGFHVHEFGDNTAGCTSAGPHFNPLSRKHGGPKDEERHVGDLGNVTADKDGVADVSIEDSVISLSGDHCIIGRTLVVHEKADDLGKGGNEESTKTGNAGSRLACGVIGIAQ
# UniProt P23497: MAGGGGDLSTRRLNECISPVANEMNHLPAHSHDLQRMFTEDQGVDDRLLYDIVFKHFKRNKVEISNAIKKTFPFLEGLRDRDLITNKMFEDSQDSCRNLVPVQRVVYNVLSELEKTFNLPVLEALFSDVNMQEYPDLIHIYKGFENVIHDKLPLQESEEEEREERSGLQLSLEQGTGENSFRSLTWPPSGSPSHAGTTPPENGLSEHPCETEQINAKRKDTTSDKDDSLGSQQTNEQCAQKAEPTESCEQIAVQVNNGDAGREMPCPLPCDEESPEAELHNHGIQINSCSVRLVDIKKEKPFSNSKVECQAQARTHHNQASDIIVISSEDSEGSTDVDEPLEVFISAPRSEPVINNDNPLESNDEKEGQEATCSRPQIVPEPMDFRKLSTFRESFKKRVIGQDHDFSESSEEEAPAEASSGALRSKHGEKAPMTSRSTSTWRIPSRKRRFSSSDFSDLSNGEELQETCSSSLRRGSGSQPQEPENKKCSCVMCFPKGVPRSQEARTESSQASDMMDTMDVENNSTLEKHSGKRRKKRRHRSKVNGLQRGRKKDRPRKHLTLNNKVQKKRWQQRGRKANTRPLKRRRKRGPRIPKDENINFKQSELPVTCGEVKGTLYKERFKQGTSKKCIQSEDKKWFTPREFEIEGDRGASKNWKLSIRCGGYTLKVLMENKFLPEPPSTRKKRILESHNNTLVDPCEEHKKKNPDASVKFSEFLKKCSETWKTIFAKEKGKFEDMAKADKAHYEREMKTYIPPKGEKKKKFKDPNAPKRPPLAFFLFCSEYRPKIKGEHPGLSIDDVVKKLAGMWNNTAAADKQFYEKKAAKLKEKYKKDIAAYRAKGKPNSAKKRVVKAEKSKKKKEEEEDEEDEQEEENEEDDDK
# UniProt O60271: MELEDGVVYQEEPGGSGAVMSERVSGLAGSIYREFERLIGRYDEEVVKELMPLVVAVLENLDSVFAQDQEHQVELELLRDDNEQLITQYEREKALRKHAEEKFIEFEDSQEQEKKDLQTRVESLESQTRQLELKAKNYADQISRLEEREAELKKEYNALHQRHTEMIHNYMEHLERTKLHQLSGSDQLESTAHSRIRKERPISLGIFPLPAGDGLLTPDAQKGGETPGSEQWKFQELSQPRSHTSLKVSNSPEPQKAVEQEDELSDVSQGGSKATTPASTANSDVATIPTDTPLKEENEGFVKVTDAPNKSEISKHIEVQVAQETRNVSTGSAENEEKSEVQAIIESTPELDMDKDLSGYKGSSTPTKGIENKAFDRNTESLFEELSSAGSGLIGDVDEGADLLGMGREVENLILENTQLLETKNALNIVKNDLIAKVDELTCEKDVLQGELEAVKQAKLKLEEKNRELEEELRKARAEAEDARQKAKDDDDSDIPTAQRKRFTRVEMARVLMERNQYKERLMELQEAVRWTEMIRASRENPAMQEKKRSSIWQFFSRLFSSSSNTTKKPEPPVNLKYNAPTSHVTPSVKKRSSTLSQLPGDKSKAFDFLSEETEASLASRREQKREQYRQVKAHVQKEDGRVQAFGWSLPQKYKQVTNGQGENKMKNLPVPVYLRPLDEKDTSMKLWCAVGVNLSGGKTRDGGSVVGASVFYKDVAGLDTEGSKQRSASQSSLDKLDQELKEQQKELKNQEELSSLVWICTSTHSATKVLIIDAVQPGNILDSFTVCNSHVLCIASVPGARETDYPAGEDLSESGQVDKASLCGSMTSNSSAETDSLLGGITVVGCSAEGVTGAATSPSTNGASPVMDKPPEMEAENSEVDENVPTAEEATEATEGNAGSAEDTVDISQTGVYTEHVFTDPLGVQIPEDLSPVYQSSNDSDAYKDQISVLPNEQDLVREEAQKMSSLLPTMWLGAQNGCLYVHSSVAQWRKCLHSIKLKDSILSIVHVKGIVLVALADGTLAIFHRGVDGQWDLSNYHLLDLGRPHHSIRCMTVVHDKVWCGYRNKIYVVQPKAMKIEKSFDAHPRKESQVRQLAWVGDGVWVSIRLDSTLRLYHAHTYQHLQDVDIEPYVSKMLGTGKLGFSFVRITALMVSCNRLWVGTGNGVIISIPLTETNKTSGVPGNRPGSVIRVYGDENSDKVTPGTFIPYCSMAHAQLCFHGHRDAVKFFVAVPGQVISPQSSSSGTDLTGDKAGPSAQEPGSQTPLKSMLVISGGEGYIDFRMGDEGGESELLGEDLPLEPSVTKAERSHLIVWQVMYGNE
# UniProt Q9C004: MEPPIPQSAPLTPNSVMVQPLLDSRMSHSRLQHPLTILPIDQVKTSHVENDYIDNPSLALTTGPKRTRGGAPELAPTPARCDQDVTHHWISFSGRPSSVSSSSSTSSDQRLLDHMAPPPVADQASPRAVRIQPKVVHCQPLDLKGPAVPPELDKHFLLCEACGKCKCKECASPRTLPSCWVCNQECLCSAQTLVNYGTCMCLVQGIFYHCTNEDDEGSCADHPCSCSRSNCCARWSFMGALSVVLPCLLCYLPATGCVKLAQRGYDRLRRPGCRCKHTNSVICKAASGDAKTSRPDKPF
# UniProt Q8IYB3: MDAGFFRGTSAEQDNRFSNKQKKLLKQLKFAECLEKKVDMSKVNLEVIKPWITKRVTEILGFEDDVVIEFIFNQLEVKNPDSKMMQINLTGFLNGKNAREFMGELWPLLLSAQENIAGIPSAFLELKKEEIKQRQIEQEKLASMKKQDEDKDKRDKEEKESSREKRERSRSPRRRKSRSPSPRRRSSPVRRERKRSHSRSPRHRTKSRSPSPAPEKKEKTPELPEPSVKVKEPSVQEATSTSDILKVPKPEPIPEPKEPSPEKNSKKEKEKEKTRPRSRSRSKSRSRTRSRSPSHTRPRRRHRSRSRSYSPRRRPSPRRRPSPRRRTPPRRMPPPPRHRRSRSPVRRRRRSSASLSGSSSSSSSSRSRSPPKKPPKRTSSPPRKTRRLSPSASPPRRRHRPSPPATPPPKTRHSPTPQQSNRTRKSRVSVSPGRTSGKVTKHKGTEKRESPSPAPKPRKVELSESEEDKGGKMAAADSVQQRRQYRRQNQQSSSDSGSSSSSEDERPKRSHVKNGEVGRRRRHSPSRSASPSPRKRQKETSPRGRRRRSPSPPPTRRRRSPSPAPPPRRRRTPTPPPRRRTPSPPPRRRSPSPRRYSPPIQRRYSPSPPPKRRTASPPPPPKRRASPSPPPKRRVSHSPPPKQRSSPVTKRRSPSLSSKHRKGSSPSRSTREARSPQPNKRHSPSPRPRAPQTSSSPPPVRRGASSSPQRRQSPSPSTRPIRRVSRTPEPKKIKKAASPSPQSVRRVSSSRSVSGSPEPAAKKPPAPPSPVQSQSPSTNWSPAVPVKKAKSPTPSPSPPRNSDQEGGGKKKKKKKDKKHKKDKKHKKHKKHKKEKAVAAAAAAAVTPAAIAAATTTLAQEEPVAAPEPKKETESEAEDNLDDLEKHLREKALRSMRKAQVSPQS
# UniProt Q9UQ35: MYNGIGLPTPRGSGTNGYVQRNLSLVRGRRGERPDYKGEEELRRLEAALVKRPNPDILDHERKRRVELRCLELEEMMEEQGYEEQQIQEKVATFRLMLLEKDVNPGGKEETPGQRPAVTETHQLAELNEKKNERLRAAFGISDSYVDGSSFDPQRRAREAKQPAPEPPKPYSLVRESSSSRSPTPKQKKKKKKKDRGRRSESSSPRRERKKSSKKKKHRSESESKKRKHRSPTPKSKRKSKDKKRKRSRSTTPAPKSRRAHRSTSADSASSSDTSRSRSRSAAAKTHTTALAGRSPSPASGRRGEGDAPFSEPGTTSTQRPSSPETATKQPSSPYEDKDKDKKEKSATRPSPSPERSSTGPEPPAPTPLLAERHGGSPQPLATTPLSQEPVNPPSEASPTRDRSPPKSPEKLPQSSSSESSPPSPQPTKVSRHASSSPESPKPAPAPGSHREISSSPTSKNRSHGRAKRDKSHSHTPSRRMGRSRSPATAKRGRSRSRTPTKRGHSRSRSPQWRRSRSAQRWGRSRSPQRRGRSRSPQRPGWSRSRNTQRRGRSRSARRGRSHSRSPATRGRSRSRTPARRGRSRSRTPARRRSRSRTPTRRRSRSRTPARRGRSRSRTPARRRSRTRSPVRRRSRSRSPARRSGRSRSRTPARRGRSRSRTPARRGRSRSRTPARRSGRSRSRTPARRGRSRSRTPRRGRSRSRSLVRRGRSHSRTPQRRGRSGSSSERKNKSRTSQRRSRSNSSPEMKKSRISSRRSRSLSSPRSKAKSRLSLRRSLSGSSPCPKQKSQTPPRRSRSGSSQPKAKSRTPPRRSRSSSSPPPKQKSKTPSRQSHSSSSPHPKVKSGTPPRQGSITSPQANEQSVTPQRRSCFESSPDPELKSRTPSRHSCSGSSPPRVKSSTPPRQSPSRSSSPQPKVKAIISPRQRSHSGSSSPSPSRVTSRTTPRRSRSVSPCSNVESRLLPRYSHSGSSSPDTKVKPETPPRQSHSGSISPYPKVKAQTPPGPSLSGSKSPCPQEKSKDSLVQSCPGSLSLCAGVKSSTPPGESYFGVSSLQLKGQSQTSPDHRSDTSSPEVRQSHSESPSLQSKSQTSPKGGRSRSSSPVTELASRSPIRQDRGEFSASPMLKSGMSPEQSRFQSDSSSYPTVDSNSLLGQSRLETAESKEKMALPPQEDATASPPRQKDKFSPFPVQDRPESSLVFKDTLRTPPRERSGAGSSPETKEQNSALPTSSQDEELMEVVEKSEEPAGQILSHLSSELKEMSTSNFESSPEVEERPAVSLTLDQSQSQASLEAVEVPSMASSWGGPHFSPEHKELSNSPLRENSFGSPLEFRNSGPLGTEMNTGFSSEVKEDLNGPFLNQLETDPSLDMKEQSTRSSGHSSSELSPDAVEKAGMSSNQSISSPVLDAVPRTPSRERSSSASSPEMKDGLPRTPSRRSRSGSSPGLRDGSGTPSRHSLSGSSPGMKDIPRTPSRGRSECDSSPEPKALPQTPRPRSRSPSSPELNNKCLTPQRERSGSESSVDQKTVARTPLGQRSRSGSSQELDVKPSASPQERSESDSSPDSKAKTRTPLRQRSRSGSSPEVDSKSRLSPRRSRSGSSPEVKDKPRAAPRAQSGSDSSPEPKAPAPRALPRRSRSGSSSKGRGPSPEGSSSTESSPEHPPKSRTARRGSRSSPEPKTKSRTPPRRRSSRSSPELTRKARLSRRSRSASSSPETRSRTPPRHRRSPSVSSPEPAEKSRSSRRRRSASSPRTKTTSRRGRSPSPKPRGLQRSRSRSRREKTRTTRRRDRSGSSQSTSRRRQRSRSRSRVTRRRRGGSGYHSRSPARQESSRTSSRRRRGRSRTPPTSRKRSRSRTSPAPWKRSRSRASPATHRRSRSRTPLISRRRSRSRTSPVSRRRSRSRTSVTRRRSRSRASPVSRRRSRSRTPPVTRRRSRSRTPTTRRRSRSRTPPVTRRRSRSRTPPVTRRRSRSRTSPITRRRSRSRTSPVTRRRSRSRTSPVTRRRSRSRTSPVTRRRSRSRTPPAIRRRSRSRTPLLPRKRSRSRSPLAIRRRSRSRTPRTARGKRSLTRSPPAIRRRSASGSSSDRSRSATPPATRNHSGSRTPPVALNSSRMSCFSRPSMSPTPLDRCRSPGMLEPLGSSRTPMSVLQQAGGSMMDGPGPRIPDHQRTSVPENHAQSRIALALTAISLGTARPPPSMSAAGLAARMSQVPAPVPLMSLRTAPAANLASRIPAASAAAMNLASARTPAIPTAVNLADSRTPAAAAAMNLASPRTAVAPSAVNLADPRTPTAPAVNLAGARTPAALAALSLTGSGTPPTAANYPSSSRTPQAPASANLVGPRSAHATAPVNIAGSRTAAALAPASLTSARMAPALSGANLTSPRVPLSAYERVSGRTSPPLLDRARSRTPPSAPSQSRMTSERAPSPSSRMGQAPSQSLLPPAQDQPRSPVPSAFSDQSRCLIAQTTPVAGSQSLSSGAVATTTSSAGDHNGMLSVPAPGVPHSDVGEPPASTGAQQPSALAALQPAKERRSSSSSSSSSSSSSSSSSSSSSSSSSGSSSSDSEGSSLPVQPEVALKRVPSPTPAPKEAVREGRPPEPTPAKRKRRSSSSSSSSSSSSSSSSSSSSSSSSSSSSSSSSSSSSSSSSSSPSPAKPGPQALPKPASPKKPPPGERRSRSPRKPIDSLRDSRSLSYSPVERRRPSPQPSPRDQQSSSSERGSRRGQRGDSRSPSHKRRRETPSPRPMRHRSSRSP
# ± gives the standard deviation of the averaged measurements. Single values are uncertain here, since repeats match poorly.
# Compound: CC[C@@H](C)Nc1cc(C(=O)N[C@H]2C[C@H]3CC[C@@H](C2)N3c2ccc(C(=O)C3CC3)cn2)c(C)cc1C(N)=O [XL888]
# Test: phosphopeptide melting temperature shift (XL888 minus DMSO); higher = stabilised by drug treatment
# Conditions: 100 µM; treatment time 2 h; layout: intact cells; SK-Mel 28
# Description: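 Phospho-TPP in intact SK-Mel 28 cells treated with 100 uM XL888 or DMSO for 2 h, heated at 10 temperatures (37-67 C) for 3 min, soluble fraction TMT10plex-labelled and TiO2 phospho-enriched. Melting curves were fitted per phosphopeptide; the value is the melting point difference (drug minus vehicle) in each of two biological replicates.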
row,Target,phosphopeptide melting temperature shift
1,SOD1 phosphosite_108 (phosphosite position: 108) (UniProt P00441),1.4 °C
2,SOX13 phosphosite_386 (phosphosite position: 386) (UniProt Q9UN79),2.07 °C
3,SP100 phosphosite_18 (phosphosite position: 18) (UniProt P23497),1.82 °C
4,SP100 phosphosite_362 (phosphosite position: 362) (UniProt P23497),4.12 °C
5,SP100 phosphosite_409 (phosphosite position: 409) (UniProt P23497),2.94 ± 1.4 °C
6,SPAG9 phosphosite_109 (phosphosite position: 109) (UniProt O60271),0.591 ± 0.6 °C
7,SPAG9 phosphosite_183 (phosphosite position: 183) (UniProt O60271),0.317 ± 0.5 °C
8,SPAG9 phosphosite_185 (phosphosite position: 185) (UniProt O60271),0.865 °C
9,SPAG9 phosphosite_217 (phosphosite position: 217) (UniProt O60271),0.788 ± 0.93 °C
10,SPAG9 phosphosite_815 (phosphosite position: 815) (UniProt O60271),1.01 °C
11,SPRY4 phosphosite_125 (phosphosite position: 125) (UniProt Q9C004),4.46 °C
12,SPTAN1 phosphosite_1217 (phosphosite position: 1217) (UniProt Q13813),1.04 ± 0.42 °C
13,SPTBN1 phosphosite_2169 (phosphosite position: 2169) (UniProt Q01082),0.2 ± 1.3 °C
14,SPTBN1 phosphosite_2319 (phosphosite position: 2319) (UniProt Q01082),1.49 ± 1.1 °C
15,SQSTM1 phosphosite_332 (phosphosite position: 332) (UniProt Q13501),0.0931 ± 0.48 °C
16,SQSTM1 phosphosite_339 (phosphosite position: 339) (UniProt Q13501),0.457 °C
17,SQSTM1 phosphosite_366 (phosphosite position: 366) (UniProt Q13501),-0.504 ± 1.4 °C
18,SRGAP2 phosphosite_994 (phosphosite position: 994) (UniProt O75044),-1.4 °C
19,SRRM1 phosphosite_389 (phosphosite position: 389) (UniProt Q8IYB3),0.1 °C
20,SRRM1 phosphosite_391 (phosphosite position: 391) (UniProt Q8IYB3),0.0666 °C
21,SRRM1 phosphosite_393 (phosphosite position: 393) (UniProt Q8IYB3),0.129 °C
22,SRRM1 phosphosite_402 (phosphosite position: 402) (UniProt Q8IYB3),-1.45 °C
23,SRRM1 phosphosite_406 (phosphosite position: 406) (UniProt Q8IYB3),-1.45 °C
24,SRRM1 phosphosite_452 (phosphosite position: 452) (UniProt Q8IYB3),1.25 ± 2 °C

# Laid out differently: results already given.
row	Target	phosphopeptide melting temperature shift
2	SOX13 phosphosite_386 (phosphosite position: 386) (UniProt Q9UN79)	2.07 °C
3	SP100 phosphosite_18 (phosphosite position: 18) (UniProt P23497)	1.82 °C
4	SP100 phosphosite_362 (phosphosite position: 362) (UniProt P23497)	4.12 °C

# The list goes on:

row,Target,phosphopeptide melting temperature shift
1,SRRM1 phosphosite_549 (phosphosite position: 549) (UniProt Q8IYB3),-0.06 ± 2.7 °C
2,SRRM1 phosphosite_551 (phosphosite position: 551) (UniProt Q8IYB3),-0.06 ± 2.7 °C
3,SRRM1 phosphosite_560 (phosphosite position: 560) (UniProt Q8IYB3),0.0984 ± 0.81 °C
4,SRRM1 phosphosite_562 (phosphosite position: 562) (UniProt Q8IYB3),0.0984 ± 0.81 °C
5,SRRM1 phosphosite_572 (phosphosite position: 572) (UniProt Q8IYB3),-7.05 ± 5.4 °C
6,SRRM1 phosphosite_574 (phosphosite position: 574) (UniProt Q8IYB3),-7.05 ± 5.4 °C
7,SRRM1 phosphosite_581 (phosphosite position: 581) (UniProt Q8IYB3),2.69 °C
8,SRRM1 phosphosite_583 (phosphosite position: 583) (UniProt Q8IYB3),2.69 °C
9,SRRM1 phosphosite_605 (phosphosite position: 605) (UniProt Q8IYB3),0.647 ± 0.38 °C
10,SRRM1 phosphosite_607 (phosphosite position: 607) (UniProt Q8IYB3),0.647 ± 0.38 °C
11,SRRM1 phosphosite_713 (phosphosite position: 713) (UniProt Q8IYB3),-3.02 °C
12,SRRM1 phosphosite_715 (phosphosite position: 715) (UniProt Q8IYB3),-3.02 °C
13,SRRM1 phosphosite_769 (phosphosite position: 769) (UniProt Q8IYB3),3.16 ± 1.6 °C
14,SRRM1 phosphosite_781 (phosphosite position: 781) (UniProt Q8IYB3),1.6 °C
15,SRRM1 phosphosite_872 (phosphosite position: 872) (UniProt Q8IYB3),-0.028 ± 0.042 °C
16,SRRM2 phosphosite_295 (phosphosite position: 295) (UniProt Q9UQ35),9.67 ± 3.7 °C
17,SRRM2 phosphosite_297 (phosphosite position: 297) (UniProt Q9UQ35),9.67 ± 3.7 °C
18,SRRM2 phosphosite_322 (phosphosite position: 322) (UniProt Q9UQ35),5.15 ± 2.4 °C
19,SRRM2 phosphosite_351 (phosphosite position: 351) (UniProt Q9UQ35),4 ± 0.95 °C
20,SRRM2 phosphosite_435 (phosphosite position: 435) (UniProt Q9UQ35),2.35 °C
21,SRRM2 phosphosite_436 (phosphosite position: 436) (UniProt Q9UQ35),2.35 °C
22,SRRM2 phosphosite_437 (phosphosite position: 437) (UniProt Q9UQ35),2.35 °C
23,SRRM2 phosphosite_440 (phosphosite position: 440) (UniProt Q9UQ35),2.45 °C
24,SRRM2 phosphosite_484 (phosphosite position: 484) (UniProt Q9UQ35),0.431 °C

row,Target,phosphopeptide melting temperature shift
1,SRRM2 phosphosite_486 (phosphosite position: 486) (UniProt Q9UQ35),0.431 °C
2,SRRM2 phosphosite_890 (phosphosite position: 890) (UniProt Q9UQ35),0.704 ± 1.5 °C
3,SRRM2 phosphosite_895 (phosphosite position: 895) (UniProt Q9UQ35),2.65 °C
4,SRRM2 phosphosite_970 (phosphosite position: 970) (UniProt Q9UQ35),2.9 ± 3.1 °C
5,SRRM2 phosphosite_972 (phosphosite position: 972) (UniProt Q9UQ35),5.87 °C
6,SRRM2 phosphosite_973 (phosphosite position: 973) (UniProt Q9UQ35),4.84 ± 0.9 °C
7,SRRM2 phosphosite_974 (phosphosite position: 974) (UniProt Q9UQ35),6.7 ± 3.7 °C
8,SRRM2 phosphosite_983 (phosphosite position: 983) (UniProt Q9UQ35),8.68 ± 2.1 °C
9,SRRM2 phosphosite_988 (phosphosite position: 988) (UniProt Q9UQ35),1.57 °C
10,SRRM2 phosphosite_1103 (phosphosite position: 1103) (UniProt Q9UQ35),2.08 °C
11,SRRM2 phosphosite_1177 (phosphosite position: 1177) (UniProt Q9UQ35),5.76 °C
12,SRRM2 phosphosite_1179 (phosphosite position: 1179) (UniProt Q9UQ35),5.85 ± 0.77 °C
13,SRRM2 phosphosite_1318 (phosphosite position: 1318) (UniProt Q9UQ35),2.008 ± 0.011 °C
14,SRRM2 phosphosite_1329 (phosphosite position: 1329) (UniProt Q9UQ35),0.458 ± 1.1 °C
15,SRRM2 phosphosite_1387 (phosphosite position: 1387) (UniProt Q9UQ35),1.44 °C
16,SRRM2 phosphosite_1404 (phosphosite position: 1404) (UniProt Q9UQ35),2.77 °C
17,SRRM2 phosphosite_1413 (phosphosite position: 1413) (UniProt Q9UQ35),2.77 °C
18,SRRM2 phosphosite_1672 (phosphosite position: 1672) (UniProt Q9UQ35),4.94 °C
19,SRRM2 phosphosite_1674 (phosphosite position: 1674) (UniProt Q9UQ35),4.73 °C
20,SRRM2 phosphosite_1727 (phosphosite position: 1727) (UniProt Q9UQ35),5.91 °C
21,SRRM2 phosphosite_1729 (phosphosite position: 1729) (UniProt Q9UQ35),5.91 °C
22,SRRM2 phosphosite_1731 (phosphosite position: 1731) (UniProt Q9UQ35),5.91 °C
23,SRRM2 phosphosite_1732 (phosphosite position: 1732) (UniProt Q9UQ35),5.91 °C
